Values from PubChem BioAssay AID1053208 (Peter MacCallum Cancer Centre, 2014)
This is an unselected part of about 17,000 deposited reagents. 788 of them (4.7%) count as active. 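Calls rest on z-score classes alone; an extra cut-off of viability at most 70% of control was not applied to them.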

Assay: 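Synthetic lethal interactions between gene loss and doxorubicin in osteosarcoma cells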 (primary screen)
Cell system: mouse osteosarcoma cells, early-passage culture from an engineered mouse model of fibroblastic bone tumour
Reagent: siRNA pool against mouse genes, 40 nM
Time to read-out: about 120 h (48 h before drug, then 72 h with drug)
Conditions: doxorubicin 100 nM for 72 h, roughly 30-40% inhibitory dose
Read-out: 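Luminescent ATP signal taken as viability with or without 100 nM doxorubicin for 72 h; mean of two wells set against non-targeting siRNA and turned into robust z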
Scale: viability z-score with doxorubicin and doxorubicin viability vs non-targeting: higher = more viable cells under doxorubicin; viability z-score without drug: higher = more viable cells with knock-down alone; z-score of drug to no-drug ratio: higher = less drug sensitisation by knock-down
Hit rule: 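Called active if knock-down leaves viability unchanged without drug (z within -2 to 2) but lowers it with doxorubicin (z at or under -2)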

Gene | combined z-score class | viability z-score with doxorubicin | viability z-score without drug | z-score of drug to no-drug ratio | doxorubicin viability vs non-targeting | Call
Snx9 (sorting nexin 9) | no change with or without drug | -0.22 | -0.84 | 0.45 | 0.92 | inactive
Dgka (diacylglycerol kinase, alpha) | no change with or without drug | 0 | 0.17 | 0 | 0.94 | inactive
Epc2 (enhancer of polycomb homolog 2) | no change with or without drug | 1.35 | -0.17 | 1.69 | 1.06 | inactive
Kctd10 (potassium channel tetramerisation domain containing 10) | no change with or without drug | -1.91 | -0.17 | -1.8 | 0.77 | inactive
Siglech (sialic acid binding Ig-like lectin H) | no change with or without drug | -0.11 | -0.84 | 0.56 | 0.93 | inactive
Col26a1 (collagen, type XXVI, alpha 1) | no change with or without drug | 0.45 | 0.84 | 0 | 0.98 | inactive
Coro1b (coronin, actin binding protein 1B) | no change with or without drug | -0.9 | -0.17 | -0.79 | 0.86 | inactive
Rragd (Ras-related GTP binding D) | no change with or without drug | -1.12 | -0.51 | -0.79 | 0.84 | inactive
Cox16 (cytochrome c oxidase assembly protein 16) | no change with or without drug | -1.46 | -0.51 | -1.12 | 0.81 | inactive
Ramp1 (receptor (calcitonin) activity modifying protein 1) | no change with or without drug | 0.9 | -0.17 | 1.24 | 1.02 | inactive
Krtap6-1 (keratin associated protein 6-1) | no change with or without drug | -1.35 | 0.17 | -1.46 | 0.82 | inactive
Glycam1 (glycosylation dependent cell adhesion molecule 1) | no change with or without drug | 0.67 | 0.51 | 0.45 | 1 | inactive
Or5al7 (olfactory receptor family 5 subfamily AL member 7) | no change with or without drug | -0.11 | -0.51 | 0.34 | 0.93 | inactive
Trem4 (triggering receptor expressed on myeloid cells 4) | no change with or without drug | 0.56 | 0.34 | 0.45 | 0.99 | inactive
Dcaf8 (DDB1 and CUL4 associated factor 8) | no change with or without drug | -1.57 | -1.01 | -0.9 | 0.8 | inactive
Tuba1b (tubulin, alpha 1B) | low cell count without drug only | -1.35 | -3.88 | 1.8 | 0.82 | inactive
Arhgap1 (Rho GTPase activating protein 1) | no change with or without drug | -1.35 | 0.84 | -1.8 | 0.82 | inactive
Bnipl (BCL2/adenovirus E1B 19kD interacting protein like) | no change with or without drug | -0.67 | 0.67 | -1.01 | 0.88 | inactive
Or4z4 (olfactory receptor family 4 subfamily Z member 4) | no change with or without drug | -1.35 | -0.17 | -1.24 | 0.82 | inactive
Csnk1g1 (casein kinase 1, gamma 1) | no change with or without drug | -1.12 | -1.01 | -0.45 | 0.84 | inactive
Macrod1 (mono-ADP ribosylhydrolase 1) | no change with or without drug | 0 | -0.17 | 0.22 | 0.94 | inactive
Magea7-ps (MAGE family member A7, pseudogene) | no change with or without drug | -1.8 | -1.18 | -1.01 | 0.78 | inactive
Npb (neuropeptide B) | low cell count with doxorubicin only | -2.7 | -1.18 | -2.02 | 0.7 | active
Opcml (opioid binding protein/cell adhesion molecule-like) | no change with or without drug | 0.79 | 1.52 | -0.11 | 1.01 | inactive
Ptprj (protein tyrosine phosphatase receptor type J) | no change with or without drug | -0.22 | -0.51 | 0.22 | 0.92 | inactive
Rnf126 (ring finger protein 126) | no change with or without drug | -0.56 | 0.17 | -0.56 | 0.89 | inactive
Ammecr1l (AMME chromosomal region gene 1-like) | no change with or without drug | -1.69 | 1.01 | -2.25 | 0.79 | inactive
Muc19 (mucin 19) | no change with or without drug | -0.67 | -0.84 | 0 | 0.88 | inactive
Slc27a4 | high cell count without drug only | 1.24 | 2.19 | -0.11 | 1.05 | inactive
Ssbp3 (single-stranded DNA binding protein 3) | no change with or without drug | 0.56 | 1.18 | -0.11 | 0.99 | inactive
Svs4 (seminal vesicle secretory protein 4) | no change with or without drug | 0.67 | 1.35 | -0.11 | 1 | inactive
Osgepl1 (O-sialoglycoprotein endopeptidase-like 1) | low cell count without drug only | -1.57 | -2.19 | 0 | 0.8 | inactive

8 successive records already listed:
Gene | combined z-score class | viability z-score with doxorubicin | viability z-score without drug | z-score of drug to no-drug ratio | doxorubicin viability vs non-targeting | Call
Or5al7 (olfactory receptor family 5 subfamily AL member 7) | no change with or without drug | -0.11 | -0.51 | 0.34 | 0.93 | inactive
Trem4 (triggering receptor expressed on myeloid cells 4) | no change with or without drug | 0.56 | 0.34 | 0.45 | 0.99 | inactive
Dcaf8 (DDB1 and CUL4 associated factor 8) | no change with or without drug | -1.57 | -1.01 | -0.9 | 0.8 | inactive
Tuba1b (tubulin, alpha 1B) | low cell count without drug only | -1.35 | -3.88 | 1.8 | 0.82 | inactive
Arhgap1 (Rho GTPase activating protein 1) | no change with or without drug | -1.35 | 0.84 | -1.8 | 0.82 | inactive
Bnipl (BCL2/adenovirus E1B 19kD interacting protein like) | no change with or without drug | -0.67 | 0.67 | -1.01 | 0.88 | inactive
Or4z4 (olfactory receptor family 4 subfamily Z member 4) | no change with or without drug | -1.35 | -0.17 | -1.24 | 0.82 | inactive
Csnk1g1 (casein kinase 1, gamma 1) | no change with or without drug | -1.12 | -1.01 | -0.45 | 0.84 | inactive

Continued:
Gene | combined z-score class | viability z-score with doxorubicin | viability z-score without drug | z-score of drug to no-drug ratio | doxorubicin viability vs non-targeting | Call
Necap1 (NECAP endocytosis associated 1) | no change with or without drug | 1.12 | 1.85 | 0 | 1.04 | inactive
Sppl2b (signal peptide peptidase like 2B) | no change with or without drug | 0.79 | -0.34 | 1.24 | 1.01 | inactive
Tshr (thyroid stimulating hormone receptor) | no change with or without drug | 0 | 0 | 0.11 | 0.94 | inactive
Elf2 (E74-like factor 2) | no change with or without drug | 0.34 | 1.35 | -0.45 | 0.97 | inactive
Vmn1r25 (vomeronasal 1 receptor 25) | low cell count with doxorubicin only | -2.02 | 0.17 | -2.14 | 0.76 | active
Btrc (beta-transducin repeat containing protein) | no change with or without drug | -0.22 | -0.51 | 0.22 | 0.92 | inactive
Cd300c2 (CD300C molecule 2) | no change with or without drug | -0.22 | 0.51 | -0.45 | 0.92 | inactive
Aurkc (aurora kinase C) | high cell count with doxorubicin only | 2.36 | 0.51 | 2.14 | 1.15 | inactive
Dusp1 (dual specificity phosphatase 1) | no change with or without drug | 1.35 | -0.51 | 1.91 | 1.06 | inactive
Ywhah | no change with or without drug | -0.22 | 0.84 | -0.67 | 0.92 | inactive
Ube3a (ubiquitin protein ligase E3A) | no change with or without drug | -0.67 | -0.34 | -0.34 | 0.88 | inactive
Arhgef15 (Rho guanine nucleotide exchange factor 15) | no change with or without drug | 0.22 | -0.84 | 1.01 | 0.96 | inactive
Eif2ak1 (eukaryotic translation initiation factor 2 alpha kinase 1) | no change with or without drug | -1.12 | -1.69 | 0.11 | 0.84 | inactive
Jpt2 (Jupiter microtubule associated homolog 2) | no change with or without drug | 0.45 | 1.18 | -0.22 | 0.98 | inactive
Fut4 (fucosyltransferase 4) | no change with or without drug | 0 | 0.84 | -0.45 | 0.94 | inactive
Prxl2a (peroxiredoxin like 2A) | no change with or without drug | 1.35 | 1.52 | 0.45 | 1.06 | inactive
Pcdha4 (protocadherin alpha 4) | no change with or without drug | -1.12 | 0.84 | -1.57 | 0.84 | inactive
Tent4a (terminal nucleotidyltransferase 4A) | no change with or without drug | 1.57 | 0.51 | 1.35 | 1.08 | inactive
